Experimental data from article PMC12392927.
These are yes or no findings as the source states them, for the method shown. In cells and extracts the contact can be indirect. Tags and fused reporters may be left off the sequences shown.

Target: GUS (cLUC-GUS and nLUC-GUS), P05804
Assay: split reporter; luciferase complementation imaging; cLUC and nLUC fusions co-expressed in N. benthamiana leaves, read 48 h after infiltration with 1 mM D-luciferin
Details: remark: other sources report otherwise

B1: GUS (cLUC-GUS and nLUC-GUS), P05804 1-603 (enzyme)
chain: MLRPVETPTREIKKLDGLWAFSLDRENCGIDQRWWESALQESRAIAVPGSFNDQFADADIRNYAGNVWYQREVFIPKGWAGQRIVLRFDAVTHYGKVWVNNQEVMEHQGGYTPFEADVTPYVIAGKSVRITVCVNNELNWQTIPPGMVITDENGKKKQSYFHDFFNYAGIHRSVMLYTTPNTWVDDITVVTHVAQDCNHASVDWQVVANGDVSVELRDADQQVVATGQGTSGTLQVVNPHLWQPGEGYLYELCVTAKSQTECDIYPLRVGIRSVAVKGEQFLINHKPFYFTGFGRHEDADLRGKGFDNVLMVHDHALMDWIGANSYRTSHYPYAEEMLDWADEHGIVVIDETAAVGFNLSLGIGFEAGNKPKELYSEEAVNGETQQAHLQAIKELIARDKNHPSVVMWSIANEPDTRPQGAREYFAPLAEATRKLDPTRPITCVNVMFCDAHTDTISDLFDVLCLNRYYGWYVQSGDLETAEKVLEKELLAWQEKLHQPIIITEYGVDTLAGLHSMYTDMWSEEYQCAWLDMYHRVFDRVSAVVGEQVWNFADFATSQGILRVGGNKKGIFTRDRKPKSAAFLLQKRWTGMNFGEKPQQGGKQ
B1 was tested, and the binding was “no binding”.
